{"sequences": {"note": "Protein sequences, listed by entry. Tags and fused reporters are not part of them.", "UniProt O89049, whole entry": "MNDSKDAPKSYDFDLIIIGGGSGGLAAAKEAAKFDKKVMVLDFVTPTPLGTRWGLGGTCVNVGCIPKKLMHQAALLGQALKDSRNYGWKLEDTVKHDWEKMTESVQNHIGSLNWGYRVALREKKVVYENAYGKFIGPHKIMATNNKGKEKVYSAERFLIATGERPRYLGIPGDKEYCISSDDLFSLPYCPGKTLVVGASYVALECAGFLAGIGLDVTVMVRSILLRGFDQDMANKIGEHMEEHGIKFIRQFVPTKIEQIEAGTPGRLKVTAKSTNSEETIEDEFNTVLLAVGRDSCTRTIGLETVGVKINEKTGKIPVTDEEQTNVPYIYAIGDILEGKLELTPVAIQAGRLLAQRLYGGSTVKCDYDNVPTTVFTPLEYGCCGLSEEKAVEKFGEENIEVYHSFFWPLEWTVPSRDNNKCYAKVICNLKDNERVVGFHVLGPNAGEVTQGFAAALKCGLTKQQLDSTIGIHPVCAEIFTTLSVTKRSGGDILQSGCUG"}, "source": "PubChem BioAssay AID588456", "about": "(National Center for Advancing Translational Sciences (NCATS), 2011)", "note": "Among all 390,000 compounds or so, about 55 (0.01%) were called active. Only results without a clear call are listed here; the source files them as inconclusive. The call rests on the fitted dose curve; in most records, active means well fitted inhibition curve with a large enough effect; inconclusive means small, poorly fitted or top-dose-only effect; inactive means no such curve, though single readings can be large or run the other way.", "data": [{"molecular_target": "Thioredoxin reductase 1, cytoplasmic (Rattus norvegicus) (UniProt O89049)", "test": "qHTS Assay for Substrates of Mammalian Selenoprotein Thioredoxin Reductase 1 (TrxR1): qHTS", "settings": "purified TrxR1 substrate turnover, NADPH consumption readout", "values": [{"smiles": "O=C(NCC1(N2CCCCC2)CCCCC1)c1ccc(F)cc1", "Potency": "inconclusive: 89.1 µM"}]}]}
